Measurements taken from publication PMC5833388.
Results are given in words; binding and its absence hold for the method and conditions named. In cells and extracts the contact can be indirect. Some entries that bind do so weakly or less than the wild type.

Chains of the proteins cited; added tags and fusions are not shown.
UniProt Q62388: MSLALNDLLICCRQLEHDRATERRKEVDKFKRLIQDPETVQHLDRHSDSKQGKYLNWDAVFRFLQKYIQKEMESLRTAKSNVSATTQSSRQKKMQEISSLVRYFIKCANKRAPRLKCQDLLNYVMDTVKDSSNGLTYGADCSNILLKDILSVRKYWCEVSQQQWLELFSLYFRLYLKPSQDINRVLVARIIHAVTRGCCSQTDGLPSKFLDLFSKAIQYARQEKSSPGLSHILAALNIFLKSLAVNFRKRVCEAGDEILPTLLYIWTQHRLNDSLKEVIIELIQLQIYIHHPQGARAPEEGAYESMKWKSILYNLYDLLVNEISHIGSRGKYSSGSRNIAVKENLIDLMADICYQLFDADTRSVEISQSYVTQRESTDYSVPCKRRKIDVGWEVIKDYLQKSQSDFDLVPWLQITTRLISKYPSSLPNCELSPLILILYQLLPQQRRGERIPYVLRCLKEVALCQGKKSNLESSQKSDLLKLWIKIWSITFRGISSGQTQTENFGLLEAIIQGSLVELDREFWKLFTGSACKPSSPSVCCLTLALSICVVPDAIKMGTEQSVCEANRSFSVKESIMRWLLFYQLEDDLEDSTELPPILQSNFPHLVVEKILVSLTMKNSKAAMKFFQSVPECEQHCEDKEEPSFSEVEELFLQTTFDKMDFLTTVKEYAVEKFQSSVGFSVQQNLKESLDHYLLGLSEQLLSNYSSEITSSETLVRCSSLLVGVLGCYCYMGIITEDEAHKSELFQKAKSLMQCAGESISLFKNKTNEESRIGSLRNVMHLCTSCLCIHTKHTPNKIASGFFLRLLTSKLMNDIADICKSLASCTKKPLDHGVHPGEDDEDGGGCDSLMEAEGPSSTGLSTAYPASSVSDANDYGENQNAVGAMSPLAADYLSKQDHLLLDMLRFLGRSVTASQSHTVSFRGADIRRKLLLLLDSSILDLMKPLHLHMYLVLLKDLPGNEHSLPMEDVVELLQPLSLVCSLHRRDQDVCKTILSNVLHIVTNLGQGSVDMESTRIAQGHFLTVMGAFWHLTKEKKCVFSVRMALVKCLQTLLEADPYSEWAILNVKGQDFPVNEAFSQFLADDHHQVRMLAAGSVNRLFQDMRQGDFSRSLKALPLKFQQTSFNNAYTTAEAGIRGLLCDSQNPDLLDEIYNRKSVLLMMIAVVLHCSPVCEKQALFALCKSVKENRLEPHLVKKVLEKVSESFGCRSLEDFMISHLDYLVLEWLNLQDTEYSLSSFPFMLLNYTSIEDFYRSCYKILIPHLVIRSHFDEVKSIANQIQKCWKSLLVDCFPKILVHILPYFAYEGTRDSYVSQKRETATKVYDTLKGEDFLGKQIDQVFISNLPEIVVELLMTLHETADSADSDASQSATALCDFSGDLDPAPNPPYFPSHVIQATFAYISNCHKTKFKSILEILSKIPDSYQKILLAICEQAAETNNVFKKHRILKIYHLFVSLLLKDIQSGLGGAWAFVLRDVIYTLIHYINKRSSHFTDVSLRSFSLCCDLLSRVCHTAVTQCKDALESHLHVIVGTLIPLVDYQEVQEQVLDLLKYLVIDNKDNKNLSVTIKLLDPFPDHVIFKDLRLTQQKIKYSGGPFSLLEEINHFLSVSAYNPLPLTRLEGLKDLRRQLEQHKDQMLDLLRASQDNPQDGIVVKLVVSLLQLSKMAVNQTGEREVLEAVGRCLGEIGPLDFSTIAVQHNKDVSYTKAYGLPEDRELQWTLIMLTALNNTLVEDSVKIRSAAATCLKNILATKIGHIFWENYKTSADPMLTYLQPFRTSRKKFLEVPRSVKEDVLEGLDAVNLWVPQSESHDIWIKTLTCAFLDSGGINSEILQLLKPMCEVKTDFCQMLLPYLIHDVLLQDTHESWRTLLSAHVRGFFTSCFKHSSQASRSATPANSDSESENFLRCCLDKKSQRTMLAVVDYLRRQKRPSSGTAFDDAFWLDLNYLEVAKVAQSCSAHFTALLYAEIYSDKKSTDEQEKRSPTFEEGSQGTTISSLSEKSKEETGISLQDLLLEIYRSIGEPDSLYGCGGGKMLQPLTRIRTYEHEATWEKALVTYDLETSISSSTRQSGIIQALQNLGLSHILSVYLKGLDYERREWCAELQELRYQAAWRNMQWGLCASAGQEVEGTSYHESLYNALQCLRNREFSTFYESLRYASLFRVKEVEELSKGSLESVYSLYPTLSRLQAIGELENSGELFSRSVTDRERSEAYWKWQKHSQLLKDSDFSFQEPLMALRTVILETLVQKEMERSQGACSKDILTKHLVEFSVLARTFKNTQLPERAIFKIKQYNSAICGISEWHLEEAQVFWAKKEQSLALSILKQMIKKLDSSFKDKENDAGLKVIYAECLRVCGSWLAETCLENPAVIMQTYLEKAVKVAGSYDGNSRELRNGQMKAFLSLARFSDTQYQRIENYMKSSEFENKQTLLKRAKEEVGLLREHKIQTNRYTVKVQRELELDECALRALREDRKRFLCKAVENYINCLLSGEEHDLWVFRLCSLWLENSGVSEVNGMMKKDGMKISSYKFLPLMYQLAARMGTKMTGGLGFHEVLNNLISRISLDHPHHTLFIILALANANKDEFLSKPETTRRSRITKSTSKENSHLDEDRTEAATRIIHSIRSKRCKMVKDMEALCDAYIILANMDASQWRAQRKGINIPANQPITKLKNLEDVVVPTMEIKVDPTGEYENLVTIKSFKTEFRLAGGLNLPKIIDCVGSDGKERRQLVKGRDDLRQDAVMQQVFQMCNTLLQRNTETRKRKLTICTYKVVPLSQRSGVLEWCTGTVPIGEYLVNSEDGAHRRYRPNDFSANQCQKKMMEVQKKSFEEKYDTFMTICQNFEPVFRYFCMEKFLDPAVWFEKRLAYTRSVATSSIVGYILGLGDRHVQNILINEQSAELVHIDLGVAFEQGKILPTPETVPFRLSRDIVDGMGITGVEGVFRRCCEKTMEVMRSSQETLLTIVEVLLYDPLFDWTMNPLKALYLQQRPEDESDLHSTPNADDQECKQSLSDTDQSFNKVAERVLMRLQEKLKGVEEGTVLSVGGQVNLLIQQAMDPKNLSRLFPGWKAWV

Molecular target: T1, Nbs1 (mouse (endogenous in MEFs)) (UniProt Q9R207)
T1 sequence: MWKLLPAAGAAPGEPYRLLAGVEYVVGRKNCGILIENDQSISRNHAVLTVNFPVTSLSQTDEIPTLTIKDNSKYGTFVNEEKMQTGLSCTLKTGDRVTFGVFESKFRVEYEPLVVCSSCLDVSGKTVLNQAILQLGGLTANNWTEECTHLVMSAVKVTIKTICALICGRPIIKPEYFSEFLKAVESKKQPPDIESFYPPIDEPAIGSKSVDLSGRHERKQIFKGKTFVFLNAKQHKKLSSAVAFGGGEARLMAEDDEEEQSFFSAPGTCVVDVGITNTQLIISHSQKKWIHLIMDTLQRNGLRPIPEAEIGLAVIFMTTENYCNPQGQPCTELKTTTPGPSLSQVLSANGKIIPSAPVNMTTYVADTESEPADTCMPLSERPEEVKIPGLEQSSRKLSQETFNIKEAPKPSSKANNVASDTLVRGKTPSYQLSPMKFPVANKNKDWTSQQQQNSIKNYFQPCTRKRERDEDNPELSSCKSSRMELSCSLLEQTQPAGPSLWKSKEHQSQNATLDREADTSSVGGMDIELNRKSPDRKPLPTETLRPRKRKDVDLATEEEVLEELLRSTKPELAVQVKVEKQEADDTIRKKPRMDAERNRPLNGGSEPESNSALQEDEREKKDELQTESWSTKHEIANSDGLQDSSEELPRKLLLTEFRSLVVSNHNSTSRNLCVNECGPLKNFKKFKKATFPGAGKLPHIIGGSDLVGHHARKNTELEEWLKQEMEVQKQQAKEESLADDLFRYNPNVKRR
Experiment: co-IP; endogenous proteins in lysates of Rps27l+/+;Trp53+/- and Rps27l-/-;Trp53+/- MEFs, untreated or irradiated at 5 Gy and harvested at indicated time points; immunoprecipitation with Mdm2 or Nbs1 antibody, then immunoblot

Atm (from UniProt Q62388 1-3066)
binding: binds
